Some of the results follow.

Protein sequences, listed by entry. Tags and fused reporters are not part of them. Lines headed by an entry give the natural chain unless they say otherwise; changes in a name come on top.
UniProt Q9Y4C2: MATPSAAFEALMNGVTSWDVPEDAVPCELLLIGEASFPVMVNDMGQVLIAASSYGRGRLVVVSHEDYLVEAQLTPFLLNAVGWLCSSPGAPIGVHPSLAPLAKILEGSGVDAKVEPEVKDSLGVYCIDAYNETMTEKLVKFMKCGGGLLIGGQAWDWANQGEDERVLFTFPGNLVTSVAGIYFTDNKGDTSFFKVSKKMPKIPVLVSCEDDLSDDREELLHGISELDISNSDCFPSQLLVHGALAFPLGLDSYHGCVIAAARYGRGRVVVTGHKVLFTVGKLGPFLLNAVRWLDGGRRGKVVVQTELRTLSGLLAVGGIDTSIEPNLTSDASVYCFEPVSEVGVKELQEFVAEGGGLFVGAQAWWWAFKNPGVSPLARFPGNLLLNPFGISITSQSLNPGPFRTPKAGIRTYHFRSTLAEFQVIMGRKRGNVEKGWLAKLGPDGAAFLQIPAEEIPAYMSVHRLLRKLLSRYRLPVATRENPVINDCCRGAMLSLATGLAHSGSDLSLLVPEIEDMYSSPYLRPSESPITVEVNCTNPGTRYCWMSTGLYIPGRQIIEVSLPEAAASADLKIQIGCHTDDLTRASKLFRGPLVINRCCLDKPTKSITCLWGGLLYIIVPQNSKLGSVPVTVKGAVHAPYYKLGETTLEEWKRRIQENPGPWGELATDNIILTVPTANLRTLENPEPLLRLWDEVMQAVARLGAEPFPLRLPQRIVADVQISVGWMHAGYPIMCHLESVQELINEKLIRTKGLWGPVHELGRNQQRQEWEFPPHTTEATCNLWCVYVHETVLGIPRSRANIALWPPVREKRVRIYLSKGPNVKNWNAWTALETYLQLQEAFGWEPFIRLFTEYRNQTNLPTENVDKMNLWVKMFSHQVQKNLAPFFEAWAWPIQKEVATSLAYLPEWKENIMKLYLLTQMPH
UniProt Q17R31: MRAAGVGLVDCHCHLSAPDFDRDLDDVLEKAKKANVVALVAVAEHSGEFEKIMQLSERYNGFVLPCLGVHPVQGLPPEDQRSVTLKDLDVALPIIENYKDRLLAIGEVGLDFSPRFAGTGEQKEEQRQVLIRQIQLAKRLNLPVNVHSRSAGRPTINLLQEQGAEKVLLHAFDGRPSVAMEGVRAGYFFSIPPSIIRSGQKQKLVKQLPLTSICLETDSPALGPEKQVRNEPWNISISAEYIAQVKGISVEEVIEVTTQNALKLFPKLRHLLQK
UniProt P37802: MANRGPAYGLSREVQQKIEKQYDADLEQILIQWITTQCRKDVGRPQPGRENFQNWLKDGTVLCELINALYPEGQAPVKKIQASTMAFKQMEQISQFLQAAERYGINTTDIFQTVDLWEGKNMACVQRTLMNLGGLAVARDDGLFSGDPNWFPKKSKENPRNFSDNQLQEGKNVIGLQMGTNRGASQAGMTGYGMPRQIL
UniProt Q6P1N9: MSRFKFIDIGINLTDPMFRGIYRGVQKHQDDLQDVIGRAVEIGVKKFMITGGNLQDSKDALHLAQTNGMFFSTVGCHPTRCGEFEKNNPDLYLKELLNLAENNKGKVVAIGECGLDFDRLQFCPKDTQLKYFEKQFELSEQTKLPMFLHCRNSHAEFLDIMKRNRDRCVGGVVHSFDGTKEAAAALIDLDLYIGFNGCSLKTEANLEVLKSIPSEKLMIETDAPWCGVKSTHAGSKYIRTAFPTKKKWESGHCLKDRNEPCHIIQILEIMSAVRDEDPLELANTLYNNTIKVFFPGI
UniProt Q99426: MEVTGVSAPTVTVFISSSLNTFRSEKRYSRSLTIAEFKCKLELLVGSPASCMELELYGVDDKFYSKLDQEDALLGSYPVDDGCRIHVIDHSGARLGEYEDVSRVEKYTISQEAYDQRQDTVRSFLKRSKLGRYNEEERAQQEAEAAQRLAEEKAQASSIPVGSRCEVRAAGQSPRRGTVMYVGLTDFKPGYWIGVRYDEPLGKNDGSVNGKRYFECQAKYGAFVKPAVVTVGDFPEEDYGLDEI
UniProt Q12800: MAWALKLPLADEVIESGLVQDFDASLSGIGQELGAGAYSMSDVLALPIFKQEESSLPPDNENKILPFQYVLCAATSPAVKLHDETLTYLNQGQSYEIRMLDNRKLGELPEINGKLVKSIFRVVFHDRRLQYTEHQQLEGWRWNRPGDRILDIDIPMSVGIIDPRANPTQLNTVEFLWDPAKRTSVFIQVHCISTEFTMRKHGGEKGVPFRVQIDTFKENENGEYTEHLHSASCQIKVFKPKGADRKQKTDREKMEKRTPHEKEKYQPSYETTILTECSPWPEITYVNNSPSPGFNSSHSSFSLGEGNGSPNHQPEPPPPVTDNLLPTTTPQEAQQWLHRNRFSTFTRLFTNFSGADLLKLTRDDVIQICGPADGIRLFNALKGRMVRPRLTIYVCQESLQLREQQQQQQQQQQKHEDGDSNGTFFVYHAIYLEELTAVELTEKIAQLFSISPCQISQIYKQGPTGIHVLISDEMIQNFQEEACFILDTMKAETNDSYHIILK
UniProt Q12788: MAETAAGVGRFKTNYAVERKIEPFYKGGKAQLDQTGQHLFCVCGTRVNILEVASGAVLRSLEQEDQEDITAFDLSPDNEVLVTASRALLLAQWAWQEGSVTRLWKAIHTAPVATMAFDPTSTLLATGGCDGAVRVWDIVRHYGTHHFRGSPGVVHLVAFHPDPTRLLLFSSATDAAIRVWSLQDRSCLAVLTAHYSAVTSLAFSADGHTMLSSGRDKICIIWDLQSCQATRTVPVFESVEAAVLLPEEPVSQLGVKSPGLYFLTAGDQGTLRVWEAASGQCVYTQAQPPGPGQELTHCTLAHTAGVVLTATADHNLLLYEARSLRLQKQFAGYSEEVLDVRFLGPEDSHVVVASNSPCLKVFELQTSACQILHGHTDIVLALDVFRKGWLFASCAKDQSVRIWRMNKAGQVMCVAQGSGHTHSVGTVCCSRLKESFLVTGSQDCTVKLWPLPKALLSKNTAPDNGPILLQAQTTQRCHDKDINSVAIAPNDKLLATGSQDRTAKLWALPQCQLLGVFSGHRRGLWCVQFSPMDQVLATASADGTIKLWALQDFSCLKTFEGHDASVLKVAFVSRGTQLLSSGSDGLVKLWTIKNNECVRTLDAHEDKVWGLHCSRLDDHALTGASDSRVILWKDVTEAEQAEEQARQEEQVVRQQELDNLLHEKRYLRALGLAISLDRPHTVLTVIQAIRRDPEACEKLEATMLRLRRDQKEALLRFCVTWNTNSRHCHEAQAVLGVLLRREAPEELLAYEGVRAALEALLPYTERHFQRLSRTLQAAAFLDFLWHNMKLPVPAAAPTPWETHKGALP
UniProt Q15633: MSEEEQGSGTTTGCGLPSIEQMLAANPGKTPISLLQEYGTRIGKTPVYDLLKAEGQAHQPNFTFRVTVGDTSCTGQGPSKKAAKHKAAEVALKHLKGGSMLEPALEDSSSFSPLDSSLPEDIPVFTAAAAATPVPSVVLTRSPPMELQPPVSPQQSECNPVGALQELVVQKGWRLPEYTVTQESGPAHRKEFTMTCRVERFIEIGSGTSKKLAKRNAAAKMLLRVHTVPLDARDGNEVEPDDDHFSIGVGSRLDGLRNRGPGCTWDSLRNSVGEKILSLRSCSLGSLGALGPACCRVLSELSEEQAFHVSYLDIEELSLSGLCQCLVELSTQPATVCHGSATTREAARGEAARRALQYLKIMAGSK
UniProt Q15813: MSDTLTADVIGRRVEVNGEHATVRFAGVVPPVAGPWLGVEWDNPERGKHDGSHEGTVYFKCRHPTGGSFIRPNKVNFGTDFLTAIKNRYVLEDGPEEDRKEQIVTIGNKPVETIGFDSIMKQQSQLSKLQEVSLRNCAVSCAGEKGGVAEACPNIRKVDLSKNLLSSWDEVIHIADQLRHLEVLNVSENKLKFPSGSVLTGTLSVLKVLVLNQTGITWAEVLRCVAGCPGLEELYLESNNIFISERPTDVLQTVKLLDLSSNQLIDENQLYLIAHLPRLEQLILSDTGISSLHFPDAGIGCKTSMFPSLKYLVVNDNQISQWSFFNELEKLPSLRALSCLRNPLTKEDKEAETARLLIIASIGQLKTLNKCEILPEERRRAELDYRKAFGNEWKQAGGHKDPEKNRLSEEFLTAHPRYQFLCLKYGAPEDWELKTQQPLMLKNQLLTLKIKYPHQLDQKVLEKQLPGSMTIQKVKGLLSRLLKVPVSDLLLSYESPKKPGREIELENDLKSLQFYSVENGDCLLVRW
UniProt O14776: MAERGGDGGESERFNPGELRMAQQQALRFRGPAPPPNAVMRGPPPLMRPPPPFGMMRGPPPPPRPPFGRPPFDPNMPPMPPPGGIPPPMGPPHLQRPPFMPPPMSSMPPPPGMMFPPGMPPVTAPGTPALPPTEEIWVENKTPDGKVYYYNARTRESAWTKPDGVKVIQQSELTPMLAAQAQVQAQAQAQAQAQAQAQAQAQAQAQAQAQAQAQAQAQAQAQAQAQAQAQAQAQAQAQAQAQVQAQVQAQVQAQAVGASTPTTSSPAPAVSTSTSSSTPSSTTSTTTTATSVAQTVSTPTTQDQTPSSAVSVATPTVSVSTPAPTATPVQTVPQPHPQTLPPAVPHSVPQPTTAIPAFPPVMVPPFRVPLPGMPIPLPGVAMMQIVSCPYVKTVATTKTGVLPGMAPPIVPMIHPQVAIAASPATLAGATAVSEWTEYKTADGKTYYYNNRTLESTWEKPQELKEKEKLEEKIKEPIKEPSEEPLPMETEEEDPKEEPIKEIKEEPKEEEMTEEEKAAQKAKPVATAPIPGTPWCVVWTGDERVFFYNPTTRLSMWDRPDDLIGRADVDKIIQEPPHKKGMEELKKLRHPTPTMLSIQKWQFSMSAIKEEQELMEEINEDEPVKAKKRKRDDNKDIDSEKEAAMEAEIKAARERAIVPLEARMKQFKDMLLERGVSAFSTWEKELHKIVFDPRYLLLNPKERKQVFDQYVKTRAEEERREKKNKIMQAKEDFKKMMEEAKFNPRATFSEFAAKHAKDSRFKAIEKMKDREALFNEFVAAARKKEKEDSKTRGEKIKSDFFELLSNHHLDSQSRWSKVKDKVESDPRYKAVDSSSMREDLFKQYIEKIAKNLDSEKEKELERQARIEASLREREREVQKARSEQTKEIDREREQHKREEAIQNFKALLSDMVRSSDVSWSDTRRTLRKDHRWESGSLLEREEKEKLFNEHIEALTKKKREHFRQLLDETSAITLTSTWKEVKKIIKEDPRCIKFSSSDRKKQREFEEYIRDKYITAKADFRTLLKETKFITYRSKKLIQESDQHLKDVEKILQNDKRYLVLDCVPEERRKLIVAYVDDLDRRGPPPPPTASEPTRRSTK
UniProt Q9UP52: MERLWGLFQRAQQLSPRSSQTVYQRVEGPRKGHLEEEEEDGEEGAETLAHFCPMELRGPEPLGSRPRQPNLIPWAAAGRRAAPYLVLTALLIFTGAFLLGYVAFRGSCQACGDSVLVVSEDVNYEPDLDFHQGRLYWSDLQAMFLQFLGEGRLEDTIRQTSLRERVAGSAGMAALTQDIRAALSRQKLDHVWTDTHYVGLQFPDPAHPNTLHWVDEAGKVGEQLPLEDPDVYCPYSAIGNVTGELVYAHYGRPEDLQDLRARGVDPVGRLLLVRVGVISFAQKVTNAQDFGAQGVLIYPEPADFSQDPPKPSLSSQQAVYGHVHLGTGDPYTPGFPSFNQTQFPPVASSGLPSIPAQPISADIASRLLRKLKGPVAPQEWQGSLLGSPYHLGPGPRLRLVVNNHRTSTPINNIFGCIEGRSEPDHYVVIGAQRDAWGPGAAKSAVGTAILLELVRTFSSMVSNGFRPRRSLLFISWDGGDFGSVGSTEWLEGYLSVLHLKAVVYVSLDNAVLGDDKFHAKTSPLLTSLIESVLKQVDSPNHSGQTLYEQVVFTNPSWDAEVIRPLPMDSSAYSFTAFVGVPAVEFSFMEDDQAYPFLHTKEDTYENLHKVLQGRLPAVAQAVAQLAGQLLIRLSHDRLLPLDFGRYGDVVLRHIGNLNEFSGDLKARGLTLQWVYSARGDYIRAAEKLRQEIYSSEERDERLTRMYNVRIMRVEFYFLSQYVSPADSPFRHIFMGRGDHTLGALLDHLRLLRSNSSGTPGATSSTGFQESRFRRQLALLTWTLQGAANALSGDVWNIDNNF
UniProt Q15545, whole entry, looked up: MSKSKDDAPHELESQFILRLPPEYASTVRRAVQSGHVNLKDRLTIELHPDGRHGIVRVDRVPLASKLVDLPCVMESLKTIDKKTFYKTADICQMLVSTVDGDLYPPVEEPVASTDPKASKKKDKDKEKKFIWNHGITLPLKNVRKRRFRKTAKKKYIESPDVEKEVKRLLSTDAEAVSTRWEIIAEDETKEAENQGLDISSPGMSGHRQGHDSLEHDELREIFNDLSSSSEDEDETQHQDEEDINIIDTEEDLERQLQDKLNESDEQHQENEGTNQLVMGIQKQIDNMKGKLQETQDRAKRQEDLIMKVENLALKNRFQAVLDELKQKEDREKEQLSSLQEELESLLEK

Compound in the assay: Cc1ncc(-c2ccnc(Nc3ccc(S(C)(=O)=O)cc3)n2)n1C(C)C
Nature of the assay: log2 fold change, soluble protein after heating vs DMSO (PISA); higher = thermal stabilisation; K562 lysate, 10 uM; active = over 0.2 and 3.5 SD of the protein, either way, in both replicates (recomputed). Summed up:
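Pellets of K562 cells were dounce-homogenised in PBS pH 7.4 with 1 mM MgCl2, and the crude extract was held at 1 mg/mL protein for a 30 min treatment with 10 μM compound. Aliquots were heated for 3 min over 48°C-58°C and pooled before NP-40 was added to 0.5% at 4°C. The supernatant from 21,000xg for 90 min was quantified by TMTpro 16plex LC-MS/MS with channel sums equalised. Values are reported from duplicates as log-two fold change in thermal stability relative to solvent controls.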
Regarding TCAF1 (UniProt Q9Y4C2), the log2 fold change was inactive: 0.001.

Turning to TARS1 (UniProt P26639), the log2 fold change was inactive: 0.003. Next, TEX30 (UniProt Q5JUR7): inactive: 0.003; TATDN3 isoform 3 (UniProt Q17R31): inactive: 0.008; TAGLN2 isoform 2 (UniProt P37802): inactive: 0.002.

TAF6L (UniProt Q9Y6J9): the log2 fold change is inactive: 0.021.

Take TATDN1 (UniProt Q6P1N9): the log2 fold change was inactive: 0.022. TAOK1 (UniProt Q7L7X3): the log2 fold change was inactive: -0.02. Take TBCB (UniProt Q99426): the log2 fold change was inactive: 0.04. In the case of TFCP2 (UniProt Q12800), the log2 fold change was inactive: 0.023. Take TBL3 (UniProt Q12788): the log2 fold change was inactive: 0.016.

TARBP2 (UniProt Q15633): the log2 fold change was inactive: 0.005. TFIP11 (UniProt Q9UBB9): the log2 fold change is inactive: 0.035. For TBCE (UniProt Q15813) the value was inactive: -0.01.

As for TBC1D14 (UniProt Q9P2M4), the log2 fold change is inactive: -0.079. TFG (UniProt Q92734): the log2 fold change was inactive: -0.028. As to TCERG1 (UniProt O14776), the log2 fold change is inactive: -0.012. Regarding TDRD3 isoform 3 (UniProt Q9H7E2), the log2 fold change was inactive: 0.17.

As for TFR2 (UniProt Q9UP52), the log2 fold change is inactive: -0.007.

TBC1D23 (UniProt Q9NUY8): the log2 fold change was inactive: -0.005.

Consider TEX10 (UniProt Q9NXF1), for which the log2 fold change was inactive: 0.048. Turning to TBC1D2 (UniProt Q9BYX2), the log2 fold change is inactive: 0.01.

Regarding TAF7 (UniProt Q15545), the log2 fold change was inactive: -0.042.

(Values after the supplement of paper PMC10849652.)
